US9492543B2, “Compositions for treating cognitive disorders” (priority 2009, dated 2016)
At least one structure is not confirmed: it was looked up by name or label, or the drawing left a doubt.

Tested on: excitatory synaptic transmission in the olfactory cortex (fEPSP, olfactory tract - piriform cortex layer I)
Assay: Basal excitatory synaptic transmission (fEPSP amplitude) in the olfactory cortex of the freely moving rat
Format: in vivo, Sprague-Dawley rat
Description: Experiments were carried out in freely moving male Sprague-Dawley rats implanted with depth stimulating and recording electrodes in the hippocampus and olfactory cortex to (1) characterize the effect of a compound of Formula 1 ((2R,3S)-2-amino-3-hydroxy-3-(pyridin-4-yl)-1-(pyrrolidin-1-yl)propan-1-one) (“Compound X”) on basal excitatory synaptic transmission, a measure positively associated with behavioral performance and encoding of information; and (2) determine a possible interaction on synaptic transmission when Compound X is coapplied with physostigmine and galantamine—both members of the cholinesterase inhibitor family which has pro-cognitive efficacy in Alzheimer's Disease patients.
Field excitatory post-synaptic responses (fEPSPs) evoked by electrical stimulation were recorded in freely moving animals with depth electrodes permanently implanted in the hippocampus and olfactory cortex. Experiment 1 compared the effect of one dose level (6 mg/kg ip) of Compound X on hippocampal and cortical fEPSPs with vehicle control data. Experiment 2 compared the effect of Compound X (6 mg/kg ip) combined with either physostigmine (0.1 mg/kg ip) or galantamine (1 mg/kg ip) on hippocampal and cortical fEPSPs with vehicle control data.
Male Sprague Dawley rats, 3 months of age at the time of surgery, were used. […]

Question: How did the “activity on basal excitatory synaptic transmission (in words)” value (Compound X 6 mg/kg ip, physostigmine 0.1 mg/kg ip, drug vs. vehicle, paired t-test) turn out when CNC(=O)Oc1ccc2c(c1)[C@]1(C)CCN(C)[C@@H]1N2C [Physostigmine] was run?
Answer: Its value is “significant enhancement”.

Question: And the “facilitation compared between treatments (in words)” value (physostigmine groups, unpaired t-test across groups, FIG. 2)?
Answer: Its value is “significantly smaller than that observed with Compound X alone or Compound X co-applied with physostigmine”.
